Measured values: patent publication US20210156867A1
These are yes or no findings as the source states them, for the method shown. Some entries that bind do so weakly or less than the wild type.

By UniProt entry, the sequences of proteins in these tests, tags left out. Residues count along the entry.
UniProt P10415, residues 1-211: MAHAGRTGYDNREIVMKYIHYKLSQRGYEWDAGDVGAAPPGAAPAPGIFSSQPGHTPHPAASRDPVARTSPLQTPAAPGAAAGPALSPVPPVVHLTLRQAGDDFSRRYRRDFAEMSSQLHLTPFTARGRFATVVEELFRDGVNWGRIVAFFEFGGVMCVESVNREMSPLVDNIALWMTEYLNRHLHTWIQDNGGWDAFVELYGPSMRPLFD

Key:
[1] = biological target: recombinant human B-cell lymphoma protein 2 alpha His-Tag (Bcl-2) (human) (UniProt P10415); experiment: fluorescence of the His-Bcl-2-sensor 5 complex (sensor displacement)
[2] = biological target: recombinant human B-cell lymphoma protein 2 alpha His-Tag (Bcl-2) (human) (UniProt P10415); experiment: fluorescence displacement assay: emission of the His-Bcl-2-compound 5 sensor complex (200 nM) after adding 800 nM Bax BH3 peptide
[3] = biological target: recombinant human B-cell lymphoma protein 2 alpha His-Tag (Bcl-2) (human) (UniProt P10415); experiment: fluorescence displacement assay: compounds 1-5 (200 nM), then His-Bcl-2 (200 nM), then Bax-BH3 (legend prints 1.6 mM; paragraph 695 prints 1.6 with an image character before M)

Measured: binding

B1: Bax BH3 peptide (55-74) wild type (peptide, UniProt Q07812 55-74, looked up)
peptide: STKKLSECLKRIGDELDSNM
binds: [1] | [2] | [3]
